Measured values reported in patent US20080292688A1, “Liposome and preparation method of the same” (Industrial Technology Research Institute, priority 2003, published 2008).
At least one read-out could not be matched to a standard name with certainty.

Assay: Solubility of RA in various solvents
Details: when 20% (w/w) TPGS is added

CC1=C(/C=C/C(C)=C/C=C/C(C)=C/C(=O)O)C(C)(C)CCC1 [RA, All-Trans Retinoic Acid]
Increase of solubility of RA in ethanol: 10 times
